Drawing on article PMC12871931, “The importin‐alpha superfamily engages in ethylene signaling by shuttling ETHYLENE INSENSITIVE 2 from the endoplasmic reticulum to the nucleus” (The Febs Journal, 2025), this text covers binding for 5 substances.

By UniProt entry, the sequences of proteins in these tests, tags left out.
UniProt O80480: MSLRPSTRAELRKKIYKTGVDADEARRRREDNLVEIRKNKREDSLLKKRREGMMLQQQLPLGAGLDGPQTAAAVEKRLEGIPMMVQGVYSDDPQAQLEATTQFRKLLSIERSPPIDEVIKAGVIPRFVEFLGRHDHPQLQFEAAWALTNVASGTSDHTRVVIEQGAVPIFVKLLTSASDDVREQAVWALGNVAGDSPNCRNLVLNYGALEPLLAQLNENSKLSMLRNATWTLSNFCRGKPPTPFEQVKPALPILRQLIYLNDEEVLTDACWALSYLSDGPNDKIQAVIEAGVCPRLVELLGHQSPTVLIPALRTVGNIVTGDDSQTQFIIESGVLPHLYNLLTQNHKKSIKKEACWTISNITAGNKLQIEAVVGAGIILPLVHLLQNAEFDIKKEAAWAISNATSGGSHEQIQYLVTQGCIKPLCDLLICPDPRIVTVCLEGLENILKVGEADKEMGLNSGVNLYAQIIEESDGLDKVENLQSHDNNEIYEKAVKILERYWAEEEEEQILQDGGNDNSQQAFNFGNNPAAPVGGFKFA
UniProt F4JL11: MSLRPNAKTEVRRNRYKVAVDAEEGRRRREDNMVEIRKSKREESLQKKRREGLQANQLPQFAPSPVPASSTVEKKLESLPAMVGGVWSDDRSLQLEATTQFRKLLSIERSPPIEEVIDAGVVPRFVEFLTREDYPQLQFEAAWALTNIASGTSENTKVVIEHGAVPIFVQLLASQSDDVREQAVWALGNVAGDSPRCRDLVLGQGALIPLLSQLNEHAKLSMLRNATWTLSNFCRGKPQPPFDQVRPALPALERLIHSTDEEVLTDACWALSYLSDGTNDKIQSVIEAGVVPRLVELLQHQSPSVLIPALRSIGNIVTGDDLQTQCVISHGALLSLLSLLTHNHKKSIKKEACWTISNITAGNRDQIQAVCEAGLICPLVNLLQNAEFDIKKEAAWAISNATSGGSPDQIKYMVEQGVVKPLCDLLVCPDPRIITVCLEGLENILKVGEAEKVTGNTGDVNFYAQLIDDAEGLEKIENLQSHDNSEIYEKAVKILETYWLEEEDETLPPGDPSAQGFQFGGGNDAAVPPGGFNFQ
UniProt O04294: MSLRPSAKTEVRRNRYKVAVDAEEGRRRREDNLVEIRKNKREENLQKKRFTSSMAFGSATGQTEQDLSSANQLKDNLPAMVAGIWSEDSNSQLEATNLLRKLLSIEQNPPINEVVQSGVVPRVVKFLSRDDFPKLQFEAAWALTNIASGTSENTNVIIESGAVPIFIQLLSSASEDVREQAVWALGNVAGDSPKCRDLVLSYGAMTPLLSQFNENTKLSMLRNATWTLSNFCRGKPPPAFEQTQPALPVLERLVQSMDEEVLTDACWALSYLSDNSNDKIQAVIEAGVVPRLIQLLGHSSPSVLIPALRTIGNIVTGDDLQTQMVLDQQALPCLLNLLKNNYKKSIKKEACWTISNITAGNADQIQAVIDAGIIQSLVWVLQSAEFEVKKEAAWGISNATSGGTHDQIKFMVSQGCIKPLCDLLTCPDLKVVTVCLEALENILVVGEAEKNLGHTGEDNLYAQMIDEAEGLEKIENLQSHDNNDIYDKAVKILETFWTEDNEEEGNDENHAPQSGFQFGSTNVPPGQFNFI
UniProt Q96321: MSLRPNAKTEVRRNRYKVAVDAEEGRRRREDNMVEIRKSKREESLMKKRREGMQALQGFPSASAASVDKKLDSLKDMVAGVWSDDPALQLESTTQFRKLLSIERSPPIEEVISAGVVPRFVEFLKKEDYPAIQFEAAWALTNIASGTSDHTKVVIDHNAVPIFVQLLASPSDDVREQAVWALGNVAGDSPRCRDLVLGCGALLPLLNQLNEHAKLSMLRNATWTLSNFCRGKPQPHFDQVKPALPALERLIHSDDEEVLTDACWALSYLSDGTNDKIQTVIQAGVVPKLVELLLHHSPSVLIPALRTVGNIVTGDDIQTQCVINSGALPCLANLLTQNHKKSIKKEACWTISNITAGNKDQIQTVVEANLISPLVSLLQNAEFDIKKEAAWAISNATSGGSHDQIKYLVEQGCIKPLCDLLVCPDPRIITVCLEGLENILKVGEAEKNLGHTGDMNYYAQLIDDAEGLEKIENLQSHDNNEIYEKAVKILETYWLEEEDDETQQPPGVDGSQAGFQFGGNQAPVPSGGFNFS

The target in test [1] is T1, EIN2C^479–1294 fused to Cerulean (Arabidopsis thaliana) (UniProt Q9S814).
T1 sequence: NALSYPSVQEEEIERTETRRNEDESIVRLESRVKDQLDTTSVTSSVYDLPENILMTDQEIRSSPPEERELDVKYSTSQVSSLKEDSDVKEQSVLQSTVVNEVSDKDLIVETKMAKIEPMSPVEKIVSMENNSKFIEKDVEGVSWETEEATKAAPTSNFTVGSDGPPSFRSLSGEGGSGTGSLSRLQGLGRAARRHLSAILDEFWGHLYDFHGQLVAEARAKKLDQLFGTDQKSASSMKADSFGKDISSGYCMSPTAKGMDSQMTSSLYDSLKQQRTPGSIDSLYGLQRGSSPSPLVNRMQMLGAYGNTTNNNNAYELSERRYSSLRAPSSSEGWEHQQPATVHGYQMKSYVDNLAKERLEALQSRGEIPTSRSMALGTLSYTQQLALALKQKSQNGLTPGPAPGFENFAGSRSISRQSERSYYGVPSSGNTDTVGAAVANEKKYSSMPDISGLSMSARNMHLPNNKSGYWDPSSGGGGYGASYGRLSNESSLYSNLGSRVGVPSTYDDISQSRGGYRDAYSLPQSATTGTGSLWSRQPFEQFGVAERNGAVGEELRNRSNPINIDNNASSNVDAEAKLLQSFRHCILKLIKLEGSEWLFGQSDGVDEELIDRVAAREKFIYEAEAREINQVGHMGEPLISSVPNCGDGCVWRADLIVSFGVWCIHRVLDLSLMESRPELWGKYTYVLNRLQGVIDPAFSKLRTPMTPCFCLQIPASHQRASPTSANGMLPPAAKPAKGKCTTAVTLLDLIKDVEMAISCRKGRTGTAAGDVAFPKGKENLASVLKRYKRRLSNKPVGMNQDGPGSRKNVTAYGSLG
Description: FRET or BRET; in planta FLIM-FRET in transiently transformed N. benthamiana epidermal leaf cells; Cerulean fusion as donor, YFP fusions as acceptors; cytosol, ER or nucleus (IMPα5-YFP and IMPα6-YFP: nuclei only).

In test [2] the target is T2, TAMRA‐NOP‐1 (EIN2 NLS peptide, N‐terminally labeled with 5‐TAMRA) (Arabidopsis thaliana).
T2 sequence (peptide, 5-TAMRA (5-carboxytetramethylrhodamine) on the N-terminus): LKRYKRRL
Description: fluorescence polarisation; direct titration: TAMRA-NOP-1 constant at 250 nM, IMPα protein concentration varied; 50 μL samples; LS55 spectrometer; Kd by Logistic Fit in Origin; three independent measurements; both purified. (In general: Polarisation of emitted light reports the rotation of a fluorescent probe.)

These are yes or no findings as the source states them, for the method shown. For some assays here: Binding seen in cells or lysates may run through a third protein. Some results given as binding are weak or reduced against the parent protein; the word gives no strength. For some assays here: Tags and fused reporters may be left off the sequences shown.

Consider “IMPα4 fused to YFP (from UniProt O80480 1-538)”, for which, in test [1], the binding entry is recorded as “binds”.

Regarding “IMPα2 fused to YFP (from UniProt F4JL11 1-535)”, the binding entry in test [1] is recorded as “binds”.

As for “IMPα3 fused to YFP (from UniProt O04294 1-531)”, in test [1], the binding entry is “binds”.

Turning to “IMPα1 fused to YFP (from UniProt Q96321 1-532)”, in test [1], the binding entry is “binds”.

Take “importin α1 (IMPα1), Arabidopsis thaliana, recombinant (from UniProt Q96321 1-532)”: the binding result in test [2] is “binds”.
